{
  "source": "PubChem BioAssay AID540256",
  "about": "(National Center for Advancing Translational Sciences (NCATS), 2011)",
  "note": "Among all 300,000 compounds or so, about 3,700 (1.2%) were called active. The shares of active, inactive and inconclusive entries below differ from those in the screen. Calls come from the whole dose curve; tested in HEK293 cells. Potencies of inconclusive entries are doubtful fits and often do not repeat. Potency is the fitted concentration of half-maximal effect.",
  "data": [
    {"experiment": "qHTS for Inhibitors of binding or entry into cells for Lassa Virus; note: nearly all actives have a fitted effect of over 50% in size", "conditions": "Lassa virus pseudotype entry inhibition, cell reporter; series mostly up to 37.9 µM", "values": [
      {"smiles": "O=C(CSCn1nnc2c(=O)[nH]c(Cc3ccc(F)cc3)nc21)Nc1cccc(C(F)(F)F)c1", "Potency": "inactive"},
      {"smiles": "CCOc1ccc(N(C)S(=O)(=O)c2ccc3c(c2)CCCN3C(C)=O)cc1", "Potency": "inconclusive: 31.6 µM [inhibitor, single point]"},
      {"smiles": "COc1ccc(CCNC(=O)Cn2c(=O)n(Cc3ccco3)c(=O)c3ccc(Cl)cc32)cc1OC", "Potency": "inactive"},
      {"smiles": "O=C(/C=C/c1ccccc1Cl)NCCCn1ccnc1", "Potency": "inconclusive: 2 µM [inhibitor, partial curve]"},
      {"smiles": "CCc1ccc(CN2CCC(n3nccc3NC(=O)c3ccccc3C)CC2)cc1", "Potency": "inconclusive: 11.2 µM [inhibitor, partial curve, poor fit]"},
      {"smiles": "CCOc1ccc(NS(=O)(=O)c2cc3c(cc2Cl)NC(=O)CO3)cc1", "Potency": "inconclusive: 35.5 µM [inhibitor, single point]"},
      {"smiles": "CSc1ccccc1NC(=O)c1ccccn1", "Potency": "inconclusive: 3.98 µM [inhibitor, single point]"},
      {"smiles": "CCCCSc1nnc(-c2ccc(OC)cc2)n1C", "Potency": "inconclusive: 6.31 µM [activator, single point]"},
      {"smiles": "CCn1c(COc2ccc(Cl)cc2)nnc1SCc1nc2ccccc2[nH]1", "Potency": "inactive"},
      {"smiles": "CCc1ccc(C(CNc2nc(C(F)(F)F)nc3ccccc23)N(C)C)cc1", "note": "(stereo not given)", "Potency": "active: 10 µM"},
      {"smiles": "Cc1ccc(S(=O)(=O)N(C)C)cc1NC(=O)C1CCCN(C(=O)c2ccc(Cl)cc2)C1", "note": "(stereo not given)", "Potency": "inconclusive: 35.5 µM [inhibitor, single point]"},
      {"smiles": "COc1ccc(COCC(O)CN2CCC(CN3C(=O)c4cccc5cccc(c45)C3=O)CC2)cc1OC", "note": "(stereo not given)", "Potency": "inconclusive: 12.6 µM [inhibitor, single point]"},
      {"smiles": "COc1cccc(C(=O)O/N=C(\\N)c2ccncc2)c1", "Potency": "inactive"},
      {"smiles": "COc1ccc(CNC(=O)c2cc3c(=O)n(Cc4ccco4)ccc3nc2C)cc1", "Potency": "inconclusive: 2.24 µM [inhibitor, full curve, poor fit]"},
      {"smiles": "CCOc1ccc(C(=O)Nc2cccc(-c3nc4cccnc4o3)c2)cc1Cl", "Potency": "active: 25.9 µM"},
      {"smiles": "Cc1ccc(/C=C/C(=O)OCn2nnc3ccccc3c2=O)o1", "Potency": "inactive"},
      {"smiles": "c1ccc(Sc2ncnc3c2oc2ccccc23)nc1", "Potency": "inactive"},
      {"smiles": "CC1(C)CC(NC(=O)c2cc(S(=O)(=O)N3CCOCC3)c(Cl)cc2Cl)CC(C)(C)N1", "Potency": "inconclusive: 1.41 µM [activator, full curve, poor fit]"},
      {"smiles": "Cc1ccc(-c2cnc3cc(C)nn3c2)cc1", "Potency": "inconclusive: 17.8 µM [inhibitor, single point]"},
      {"smiles": "CC(C)(C)n1ncc2c(=O)n(CC(=O)c3ccc(Cl)cc3)cnc21", "Potency": "inconclusive: 1 µM [activator, single point]"},
      {"smiles": "O=C1CCCc2cc(S(=O)(=O)N3CCCC(C(=O)NCc4ccccc4)C3)ccc2N1", "note": "(stereo not given)", "Potency": "inconclusive: 8.91 µM [inhibitor, partial curve, poor fit]"},
      {"smiles": "CCOc1ccc(NS(=O)(=O)c2ccc(NC(=O)C3CCCO3)cc2)cc1", "note": "(stereo not given)", "Potency": "active: 8.91 µM"},
      {"smiles": "COc1ccccc1NC(=S)NC(=O)c1ccc(-c2ccc(Cl)cc2)o1", "Potency": "inactive"},
      {"smiles": "Brc1ccc(-c2nnc(-c3ccccc3Br)o2)cc1", "Potency": "inconclusive: 13 µM [inhibitor, single point]"},
      {"smiles": "COc1cc2c(cc1OC)C(c1cccs1)N(C(=O)c1ccncc1)CC2", "note": "(stereo not given)", "Potency": "inconclusive: 12.6 µM [inhibitor, partial curve, poor fit]"},
      {"smiles": "O=C(Nc1ccc(NC(=O)c2cccs2)c(Cl)c1)c1cccs1", "Potency": "inactive"},
      {"smiles": "O=C(COC(=O)c1ccccc1Cc1ccccc1)Nc1ccc(SC(F)F)cc1", "Potency": "inconclusive: 3.16 µM [activator, partial curve, poor fit]"},
      {"smiles": "COC(=O)C(C)(C)ONC(=O)Nc1ccc([N+](=O)[O-])cc1", "Potency": "inactive"},
      {"smiles": "O=C(Cn1ccc2cc(S(=O)(=O)N3CCCCC3)ccc21)NCCc1ccccc1Cl", "Potency": "inactive"},
      {"smiles": "CCC(C)(C)NC(=O)c1sccc1Oc1ccc(F)cc1[N+](=O)[O-]", "Potency": "inconclusive: 17.8 µM [inhibitor, partial curve, poor fit]"},
      {"smiles": "NNC(=O)CSc1nc(-c2ccccc2)nc2c1CCCC2", "Potency": "inconclusive: 17.8 µM [activator, single point]"},
      {"smiles": "COc1ccc(NC(=O)CCCC2CCCCC2)cc1S(=O)(=O)N1CCCCC1", "Potency": "inconclusive: 16.4 µM [inhibitor, partial curve, poor fit]"},
      {"smiles": "Cc1ccccc1NC(=O)Cn1cc(C(=O)c2cccs2)c2ccccc21", "Potency": "inconclusive: 1.12 µM [inhibitor, partial curve, poor fit]"},
      {"smiles": "O=C(Cn1c(SCc2ccccc2F)nc2ccncc21)Nc1ccccc1C(F)(F)F", "Potency": "inconclusive: 4.47 µM [activator, partial curve, poor fit]"},
      {"smiles": "CCN(C(=O)COC(=O)c1ccc(N2C(=O)c3ccccc3C2=O)cc1)C1CCS(=O)(=O)C1", "note": "(stereo not given)", "Potency": "inconclusive: 7.3 µM [inhibitor, partial curve, poor fit]"},
      {"smiles": "CCOc1ccc(NC(=O)c2ccc3[nH]c(C)c(C)c3c2)cc1", "Potency": "inconclusive: 7.08 µM [inhibitor, full curve, poor fit]"},
      {"smiles": "N=C(N)SCP(=O)(c1ccccc1)c1ccccc1", "Potency": "inconclusive: 22.4 µM [inhibitor, partial curve, poor fit]"},
      {"smiles": "Cc1nc2ccc(S(=O)(=O)N(CC(=O)Nc3ccc(F)cc3F)Cc3ccccc3)cc2s1", "Potency": "inactive"},
      {"smiles": "NC(=O)c1sc2nc(N3CCCCC3)c3c(c2c1N)CCCC3", "Potency": "inactive"},
      {"smiles": "Cc1ccc2c(c1)C(N1CCN(C)CC1)=Nc1cccnc1N2", "Potency": "inactive"},
      {"smiles": "NCc1ccc(-n2c(-c3nonc3N)nc3cnccc32)cc1", "Potency": "inconclusive: 12.5 µM [inhibitor, partial curve, poor fit]"},
      {"smiles": "C(=C\\c1nc(-c2ccncc2)no1)/c1ccccc1", "Potency": "inconclusive: 14.1 µM [inhibitor, partial curve, poor fit]"},
      {"smiles": "CCC(C(=O)N/N=C/c1cccnc1)c1ccccc1", "note": "(stereo not given)", "Potency": "inactive"},
      {"smiles": "CC(=O)NC1CC2CCCC(C1)N2", "note": "(stereo not given)", "Potency": "inconclusive: 2.31 µM [inhibitor, partial curve, poor fit]"},
      {"smiles": "COc1ccc(NC(=S)NCCc2c(C)[nH]c3ccc(OC)cc23)cc1", "Potency": "inconclusive: 0.501 µM [inhibitor, full curve, poor fit]"}
    ]}
  ]
}
